Measurements from “University of Dundee, Small-Polar-MMV Screening Library” (2021), ChEMBL document CHEMBL3988442.

Mtb glucose medium: 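Phenotypic screen: M. tuberculosis growth, glucose 7H9 medium, 3 days; the read-out is not stated. Tested at 500 µM. Higher reads as more growth inhibition (inferred: compounds with an IC50 in retests scored well above the rest). Of about 18,000 compounds tested this way, about 1,400 (7.9%) reached 50% or more in at least one test.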
Mtb cholesterol medium: 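Whole-cell growth test on Mycobacterium tuberculosis, read after 4 days in a medium based on cholesterol and the lipid DPPC; the read-out is not stated. Tested at 500 µM. Direction is inferred from retests: higher values go with more growth inhibition. About 18,000 compounds were tested under these conditions; 5% (about 900) showed 50% or more at least once.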

The filed quantity is “Percent Effect” (%). The controls that fix the scale are not given in the record; negative values are as filed. Compounds were drawn at random from those tested, without regard to their results.

SMILES	Mtb glucose medium	Mtb cholesterol medium
Cc1n[nH]c(C)c1CNC(=O)c1c(F)cc(F)cc1F	-0.7012%	-3.505%
N#Cc1cc(CN2CCCC(OCCO)C2)ccc1F (centres undefined)	5.215%	-2.088%
NC(=O)c1ccccc1COC(=O)c1ccsc1	41.06%	44.86%
CCC(CC)c1nnc(N)s1	11.31%	-3.518%
Cc1nnc(C(C)N2CCn3ccnc3C2)o1 (centres undefined)	-2.943%	-3.86%
CCCN(CC(N)=O)C(C)CC(=O)Nc1ccccc1 (centres undefined)	15.29%	15.15%
CCN1CCN(CC(=O)Nc2ccc(Cl)cn2)CC1	48.76%	21.66%
CS(=O)(=O)NCC(=O)Nc1ccc(-n2cccn2)cc1	22.18%	57.39%
Cc1cc(NC(=O)NCC(O)CN2CCCCC2)no1 (centres undefined)	8.963%	1.281%
CC(=O)Nc1nc(C(=O)N2CCNC(=O)C2)cs1	13.89%	6.668%
CN(C)CC(=O)NC(C)(C)C(=O)NCC1CCCC1	1.777%	-3.964%
CC(=O)c1cc(CN2CCN(C(=O)N(C)C)CC2)cs1	15.92%	8.233%
O=C1NC(=O)c2c(O)cccc21	56.22%	62.05%
Cn1ncnc1COc1ccc(S(N)(=O)=O)cc1	13.73%	-2.09%
Cc1cnc(N)nc1-c1ccccc1	5.764%	-6.292%
CC(C)OCCC(=O)N1CCC(O)(C(F)(F)F)CC1	45.32%	35.77%
Cc1nc(C2CCN(C(=O)c3cn[nH]c3)CC2)no1	4.688%	1.216%
O=C(Nc1cccc(Cl)c1Cl)C1CCS(=O)(=O)C1 (centres undefined)	-13.78%	-16.38%
Cc1cc(C(=O)N2CCNCC2)ccc1F	-4.718%	-8.78%
O=C(NCCCn1cccn1)c1nc2ncccn2n1	-3.016%	16.32%
CCC(NC(=O)c1ccc(CO)o1)c1nc(C)c[nH]1 (centres undefined)	2.842%	7.788%
Cc1ccc(C(N)=O)c(O)c1	12.45%	4.677%
Nc1[nH]nc(C(=O)N2C[C@H](O)[C@@H](N3CCCC3)C2)c1Cl	-13.69%	4.658%
C[C@@H](N)c1ccc(Cl)cn1	12.28%	2.431%
Cc1ccncc1NS(=O)(=O)Cc1ccccc1	-1.966%	-19.72%
Cc1cc(C)n(CC(C)NC(=O)c2ccc(N)nc2)n1 (centres undefined)	21.85%	7.598%
Cc1cccc(S(=O)(=O)NC2CCNC2)c1Cl (centres undefined)	-1.343%	-3.04%
CC(N)c1ccccc1N1CCOCC1 (centres undefined)	12.29%	4.019%
CC(C)NC(=O)NC(=O)C(C)N1CCC(O)CC1 (centres undefined)	9.816%	-0.6748%
O=C1CCN(C(=O)CCCSc2ccccc2)CCN1	17.71%	12.94%
C1CC(OC2CCNCC2)C1	6.115%	-17.02%
O=C1NCC(C(=O)NCCCc2ccc(Cl)cc2)N1 (centres undefined)	51.49%	36.41%
CC(N)c1ccc(-n2cc(C(N)=O)nn2)cc1 (centres undefined)	4.024%	0.6733%
CCN(CCCN(C)C)S(=O)(=O)N1CCCC1C (centres undefined)	8.635%	4.343%
CC(C)NC(=O)Cn1nnc(-c2cccs2)n1	4.799%	6.858%
COCCn1cc(CNC(=O)NCc2cccs2)cn1	-2.061%	-15.16%
C1CNC(CN2CCOCC2)C1 (centres undefined)	-9.413%	-10.21%
CCn1cc(Br)cc1C(=O)N1CCN(CC(C)O)CC1 (centres undefined)	13.7%	7.882%
O=C(CN1CCCC1c1ccco1)N1CCOCC1 (centres undefined)	0.7823%	-1.83%
COCCN(Cc1ccsc1)C(=O)[C@@H]1C[C@H](N)CN1C	43.63%	14%
C1CN[C@@H]2CNC[C@@H]2C1	-8.29%	-15.63%
CSCc1noc(CN2CCCC(N(C)C)CC2)n1 (centres undefined)	9.512%	-21.23%
Cc1oc(C)c(S(N)(=O)=O)c1C(=O)Nc1ccccc1	21.87%	1.252%
CCNC(=O)c1ccc(OCCOCC)cc1	37.56%	32.15%
CCC(C)(N)c1nc(=O)cc(C)[nH]1 (centres undefined)	-3.966%	-15.74%
CSCC(C)CNC(=O)c1cnccn1 (centres undefined)	-3.443%	-9.558%
CC(N)Cn1cccn1 (centres undefined)	8.579%	7.361%
CN(C)c1nc(N)nc(CN2CCC(C(N)=O)CC2)n1	-4.229%	-15.98%
CNCCCNS(=O)(=O)c1cn(C(C)C)cn1	-10.9%	-19.42%
NCc1cccc(C(N)=O)c1	10.07%	12.39%
CC(C)Oc1cc(N2CCN(CCO)CC2)nc(N)n1	-5.466%	11.6%
Cc1noc(C)c1CN(C)CC(=O)NCC1CC1	35.13%	18.09%
CCCS(=O)(=O)N1CCC(C(=O)N(C)C)CC1	10.62%	-1.654%
CNC(=O)c1cccnc1NCC1CC1	6.298%	12.13%
OCCc1ccccc1CO	9.202%	-1.489%
CS(=O)(=O)NCC(=O)N[C@@H]1COCC[C@@H]1OCCO	10.57%	-5.584%
CCn1cc(Cl)c(C(=O)NC2=NCCS2)n1	29.32%	30.78%
Cc1cc(NC(=O)COc2ccc3c(c2)OCO3)no1	-8.058%	-14.8%
CCC1(CC)CCCN(C(=O)CS(=O)(=O)CC)CC1	91.53%	86.34%
O=C(Nc1ccon1)c1n[nH]cc1I	12.71%	15.45%
CCCNC(C)C(=O)Nc1ccccc1 (centres undefined)	-5.364%	-0.8914%
N#Cc1ccc(OCc2cc(=O)n3ccsc3n2)cc1	8.816%	32.61%
CSCc1cccc(C(=O)NC2CCCCNC2=O)c1 (centres undefined)	-9.505%	-16.83%
CC1CN(c2ccc(CNc3nccs3)cn2)CCO1 (centres undefined)	42%	39.84%
Nc1cc(-c2ccc(I)cc2)nn1CCO	52.24%	-5.251%
CC(C)C[C@H](N)C(=O)N1CCOC2(CCCC2)C1	14.46%	14.16%
CCN1CCCC1CNC(=O)c1ccc(C)o1 (centres undefined)	25.51%	8.433%
O=C(Nc1nccs1)N1CCC2(CC1)OCCO2	25.45%	10.57%
O=C(NC1CCCCNC1=O)c1cc(Br)c[nH]1 (centres undefined)	-0.6769%	-7.195%
Cc1ccc2cccc(OCCNC(C)CO)c2n1 (centres undefined)	-2.984%	-32.36%
CCN(C(=O)c1ccc(=O)n(C)n1)C1CCCC1	13.87%	-0.08588%
NC(=O)c1ccccc1CO	-7.118%	-21.18%

For reference, 7 entries once more:

{"smiles": "Cc1cc(C)n(CC(C)NC(=O)c2ccc(N)nc2)n1", "stereo": "centres undefined", "Mtb glucose medium": 21.85, "Mtb cholesterol medium": 7.598}
{"smiles": "C1CC(OC2CCNCC2)C1", "Mtb glucose medium": 6.115, "Mtb cholesterol medium": -17.02}
{"smiles": "CC(N)Cn1cccn1", "stereo": "centres undefined", "Mtb glucose medium": 8.579, "Mtb cholesterol medium": 7.361}
{"smiles": "CNC(=O)c1cccnc1NCC1CC1", "Mtb glucose medium": 6.298, "Mtb cholesterol medium": 12.13}
{"smiles": "CCC(CC)c1nnc(N)s1", "Mtb glucose medium": 11.31, "Mtb cholesterol medium": -3.518}
{"smiles": "O=C(NCCCn1cccn1)c1nc2ncccn2n1", "Mtb glucose medium": -3.016, "Mtb cholesterol medium": 16.32}
{"smiles": "CCCS(=O)(=O)N1CCC(C(=O)N(C)C)CC1", "Mtb glucose medium": 10.62, "Mtb cholesterol medium": -1.654}